# Laboratory results as given in PubChem BioAssay AID485353 (National Center for Advancing Translational Sciences (NCATS), 2010).
# In all, about 330,000 compounds went through this assay and about 610 (0.18%) were called active. Inconclusive results, whose numbers are uncertain, are shown with a selection of clear calls. The call rests on the fitted dose curve. Potencies of inconclusive entries are doubtful fits and often do not repeat.
# Assay: qHTS of Yeast-based Assay for SARS-CoV PLP; further: nearly all actives have a fitted effect of over 55% in size
# Conditions: S. cerevisiae expressing SARS-CoV PLpro; Potency: growth rescue; series mostly up to 32.9 µM
# Potency means the concentration at half of the fitted maximal effect.
row,SMILES,Potency
1,CC1CCCN(c2nc(NCc3ccco3)nc(N)c2[N+](=O)[O-])C1 (stereo unspecified),inactive
2,CCOC(=O)C1CCCN(C(=O)c2ccccc2SCCOC)C1 (stereo unspecified),"inconclusive: 20 µM [activator, single point]"
3,CC(C)CNC(=O)COc1cccc(C(=O)NCc2ccccc2)c1,"inconclusive: 2.51 µM [activator, full curve, poor fit]"
4,O=C(c1cc(C2CC2)on1)N1CCCC(N2CCN(c3cccc(C(F)(F)F)c3)CC2)C1 (stereo unspecified),"inconclusive: 20 µM [activator, single point]"
5,CCCCC1OC23CCCCC2C(C#N)(C#N)C1(C#N)C(=N)O3 (stereo unspecified),"inconclusive: 0.355 µM [activator, partial curve, poor fit]"
6,Fc1ccc(N/N=C(/c2ccccc2)c2ccccn2)cc1,"inconclusive: 4.47 µM [activator, single point]"
7,Cc1ccc(NCc2ccncc2)c(Br)c1,inactive
8,C/C(N)=C(/C#N)C(=O)COC(=O)c1cccc2ccccc12,"inconclusive: 15.8 µM [activator, partial curve, poor fit]"
9,CCCS(=O)(=O)N1CCCC(C(=O)NCCN(Cc2ccccc2)C(C)C)C1 (stereo unspecified),"inconclusive: 2.51 µM [activator, single point]"
10,O=C(COC(=O)CCCN1C(=O)c2ccccc2C1=O)Nc1ncc(Cl)cc1Cl,"inconclusive: 3.55 µM [activator, single point]"
11,Cc1ccc(-n2c(SCC(=O)Nc3ccc4c5c(cccc35)CC4)nc(O)cc2=O)cc1,"inconclusive: 20 µM [activator, single point]"
12,Cc1cc(C)c2c(N)c(C(=O)Nc3ccc([N+](=O)[O-])cc3)sc2n1,inactive
13,CCS(=O)(=O)C1=NN2C(=N)/C(=C\c3ccc(OC(=O)c4ccco4)cc3)C(=O)N=C2S1,"inconclusive: 4.47 µM [activator, single point]"
14,COc1ccc(N2C(=O)N3[C@H](c4ccc(Cl)cc4)[C@@H]4C(=O)N(C5CCCCC5)C(=O)[C@@H]4[C@]3(Cc3ccc(Cl)cc3)C2=O)cc1,inactive
15,Cc1ccc2[nH]c(=O)c(-c3noc(C(C)C)n3)cc2c1,"inconclusive: 4.47 µM [activator, partial curve]"
16,CSc1nnc(N2C(=O)C(O)=C(C(=O)c3ccco3)C2c2ccc(F)cc2)s1 (stereo unspecified),inactive
17,CCOc1c(C)cc(S(=O)(=O)NCc2ccccn2)c(C)c1C,inactive
18,Cc1ccccc1N1CCN(CCCN2C(=O)C3CCCCN3C2=O)CC1 (stereo unspecified),"inconclusive: 0.355 µM [activator, full curve, poor fit]"
19,CCCCn1nc(C(=O)NNC(=O)c2ccncc2)c2ccccc2c1=O,"inconclusive: 2.82 µM [activator, single point]"
20,COc1cccc(-c2noc(Cn3nc(C)c([N+](=O)[O-])c3C)n2)c1,"inconclusive: 3.16 µM [activator, single point]"
21,Oc1c(C(Nc2ccccn2)c2ccccn2)ccc2cccnc12 (stereo unspecified),"inconclusive: 3.16 µM [activator, single point]"
22,CCOCCCn1c(=S)[nH]c2cc(C(=O)NCCc3ccc(OC)c(OC)c3)ccc2c1=O,"inconclusive: 20 µM [activator, single point]"
23,O=C(NCC(=O)N(c1ccccc1)C(C(=O)NC1CCCCC1)c1cccnc1)c1ccco1 (stereo unspecified),inactive
24,COc1cccc(CNC(=O)C2CCC(=O)N(CCc3cccc(F)c3)C2)c1 (stereo unspecified),"inconclusive: 5.01 µM [activator, partial curve]"

row,SMILES,Potency
1,COc1cccc(/C=N/NC(=O)c2[nH]nc3c2CCc2ccccc2-3)c1O,active: 6.31 µM
2,COc1cc(OC)c(NC(=O)c2sc3ncn(CC(=O)N4CCN(c5ccccn5)CC4)c(=O)c3c2C)cc1Cl,inactive
3,CC1=C(C(=O)OCC2CCCO2)C(c2ccc(F)cc2)NC(=O)N1 (stereo unspecified),"inconclusive: 17.8 µM [activator, single point]"
4,c1ccc(CSc2nnc(-c3ccco3)o2)cc1,inactive
5,Cc1ccccc1NC(=O)c1ccc(F)c(S(=O)(=O)N2CCN(c3ccccn3)CC2)c1,"inconclusive: 2.82 µM [activator, single point]"
6,CCOc1ccc(C(=O)N2CCc3ccccc32)cc1OCC,"inconclusive: 12.6 µM [activator, partial curve]"
7,COc1ccc(/C=C2/SC(=S)N(CCCC(=O)N3CCN(C)CC3)C2=O)cc1,"inconclusive: 20 µM [activator, single point]"
8,COc1cc(N)c(Cl)cc1C(=O)OCC(=O)N1CCCCCC1,inactive
9,COCCNC(=O)Cc1cn(C)c2ccccc12,"inconclusive: 0.631 µM [activator, full curve]"
10,Cc1cccc(N2CCN(C(=O)C3CCC(=O)N(C4CC4)C3)CC2)c1C (stereo unspecified),active: 5.01 µM
11,CC1CC(=O)c2cnc(Nc3cccc(C(F)(F)F)c3)nc2C1 (stereo unspecified),inactive
12,Cc1cccc(/C=N/n2c(C)nc3ccccc3c2=O)c1,inactive
13,COc1ccc(C2=NN(S(C)(=O)=O)C(c3cccs3)C2)cc1OC (stereo unspecified),inactive
14,S=C(NCc1ccccc1)N/N=C/c1cccs1,active: 5.62 µM
15,C(=N\Nc1nncc2ccccc12)/c1ccccn1,active: 12.6 µM
16,O=C1c2oc3ccccc3c(=O)c2C(c2cccnc2)N1CCCN1CCOCC1 (stereo unspecified),inactive
17,C=CCNC(=S)NNC(=O)COc1ccc(Br)cc1,"inconclusive: 20 µM [activator, single point]"
18,Nc1nc(N2CCOCC2)cc(=O)[nH]1,inactive
19,Cc1[nH]c2ccccc2c1C(=O)COC(=O)C1CCC(=O)N1 (stereo unspecified),inactive
20,COc1ccc(NC(=O)NNC(=O)C(O)(c2ccccc2)c2ccccc2)cc1,"inconclusive: 3.55 µM [activator, full curve]"
21,CC1(C)CC(=O)C(CS(=O)(=O)c2ccccc2)=C(Cl)C1,"inconclusive: 1 µM [activator, partial curve]"
22,COc1ccc(NC(=O)C(=O)NNC(=O)c2cccs2)c(OC)c1,"inconclusive: 4.47 µM [activator, single point]"
23,COc1ccc(Nc2ncc(C(=O)N3CCN(c4ccccc4OC)CC3)c3ccccc23)cc1,"inconclusive: 8.91 µM [activator, partial curve]"
24,COc1ccc(S(=O)(=O)N2CCOCC2)cc1C(=O)N1CCCCC1,"inconclusive: 3.98 µM [activator, full curve]"

# An excerpt from above in order of molar mass, largest number first:
row,SMILES,Potency
7,COc1ccc(/C=C2/SC(=S)N(CCCC(=O)N3CCN(C)CC3)C2=O)cc1,"inconclusive: 20 µM [activator, single point]"
3,CC(C)CNC(=O)COc1cccc(C(=O)NCc2ccccc2)c1,"inconclusive: 2.51 µM [activator, full curve, poor fit]"
12,Cc1cccc(/C=N/n2c(C)nc3ccccc3c2=O)c1,inactive

# More results follow.

row,SMILES,Potency
1,CCOC(=O)C1CCCN(S(=O)(=O)c2ccc3ccccc3c2)C1 (stereo unspecified),inactive
2,Cc1ccccc1NCc1ccc(O)c2ncccc12,"inconclusive: 20 µM [activator, single point]"
3,S=C(Nc1ccc2cn[nH]c2c1)Nc1ccccc1Cl,"inconclusive: 22.4 µM [activator, single point]"
4,COc1ccc(Cl)cc1NC(=S)NCc1ccccn1,inactive
5,O=C(CCS(=O)(=O)c1ccc(Br)cc1)Nc1ccc(Cl)cc1F,"inconclusive: 0.282 µM [activator, partial curve, poor fit]"
6,COc1cccc(C(=O)CSc2nnc(-c3cc(OC)c(OC)c(OC)c3)o2)c1,"inconclusive: 3.98 µM [activator, single point]"
7,O=C(OCC1O[C@@H](OC(=O)c2cc(O)c(O)c(O)c2)[C@@H](OC(=O)c2cc(O)c(O)c(O)c2)[C@@H](OC(=O)c2cc(O)c(O)c(O)c2)[C@@H]1OC(=O)c1cc(O)c(O)c(O)c1)c1cc(O)c(O)c(O)c1 (stereo partly specified),active: 5.62 µM
8,CCN(CC)CCN(Cc1cc2cc3c(cc2[nH]c1=O)OCO3)C(=S)NC,"inconclusive: 2.82 µM [activator, full curve]"
9,COc1cc([N+](=O)[O-])ccc1NC(=O)Nc1cnccn1,"inconclusive: 3.98 µM [activator, single point]"
10,O=C(Nc1ccccc1C(=O)O)c1cc(S(=O)(=O)Nc2ccccc2)ccc1Cl,"inconclusive: 20 µM [activator, single point]"
11,Nc1nonc1-n1nnc(C(=O)N/N=C/c2cc(Br)ccc2O)c1CNc1ccccc1,"inconclusive: 17.8 µM [activator, partial curve, poor fit]"
12,Cc1ccc(S(=O)(=O)CC(=O)Nc2sc(C)c(C)c2C(N)=O)cc1,"inconclusive: 10 µM [activator, partial curve]"
13,COc1ccc(NC(=O)c2cn(-c3ccccc3)nc2-c2ccncc2)cc1,inactive
14,Cc1nn(CC(=O)NNC(=S)NCC2CCCO2)c(C)c1Br (stereo unspecified),"inconclusive: 17.8 µM [activator, single point]"
15,Cc1ccc(NC(=O)c2cc(N3C(=O)C=CC3=O)ccc2N2CCOCC2)cc1Cl,inactive
16,Cn1cc(/C=N/NC(=O)COc2ccccc2[N+](=O)[O-])c2ccccc21,"inconclusive: 12.6 µM [activator, single point]"
17,Cc1cc(C)c(NC(=O)Nc2ccccc2)c(Cl)c1,"inconclusive: 10 µM [activator, single point]"
18,CCn1nnc(NC(=O)COc2ccc(C3CCCCC3)cc2)n1,"inconclusive: 3.98 µM [activator, single point]"
19,O=S(=O)(NCCOc1ccc(F)cc1)c1ccc2c(c1)OCCO2,"inconclusive: 12.6 µM [activator, single point]"
20,CCCCc1c(C)nc(N2CCCC2)[nH]c1=O,inactive
21,Cc1ccccc1NC(=S)NNC(=O)c1ccoc1C,inactive
22,O=[N+]([O-])c1ccc(C23CC4CC(CC(O)(C4)C2)C3)cc1,"inconclusive: 20 µM [activator, single point]"
23,Cc1cc(Cl)c(C)c(S(=O)(=O)N2CCN(CC(=O)N3CCOCC3)CC2)c1Cl,inactive
